Assay results as given in paper PMC7103907.
Results are given in words; binding and its absence hold for the method and conditions named. In cells and extracts the contact can be indirect. Some binding calls cover weakened binding; strength is not graded here. Blank lines part the entries; values can stand above or below the molecule they belong to.

Amino acid sequences for entries named in this document (tags omitted).
UniProt Q8R4B8: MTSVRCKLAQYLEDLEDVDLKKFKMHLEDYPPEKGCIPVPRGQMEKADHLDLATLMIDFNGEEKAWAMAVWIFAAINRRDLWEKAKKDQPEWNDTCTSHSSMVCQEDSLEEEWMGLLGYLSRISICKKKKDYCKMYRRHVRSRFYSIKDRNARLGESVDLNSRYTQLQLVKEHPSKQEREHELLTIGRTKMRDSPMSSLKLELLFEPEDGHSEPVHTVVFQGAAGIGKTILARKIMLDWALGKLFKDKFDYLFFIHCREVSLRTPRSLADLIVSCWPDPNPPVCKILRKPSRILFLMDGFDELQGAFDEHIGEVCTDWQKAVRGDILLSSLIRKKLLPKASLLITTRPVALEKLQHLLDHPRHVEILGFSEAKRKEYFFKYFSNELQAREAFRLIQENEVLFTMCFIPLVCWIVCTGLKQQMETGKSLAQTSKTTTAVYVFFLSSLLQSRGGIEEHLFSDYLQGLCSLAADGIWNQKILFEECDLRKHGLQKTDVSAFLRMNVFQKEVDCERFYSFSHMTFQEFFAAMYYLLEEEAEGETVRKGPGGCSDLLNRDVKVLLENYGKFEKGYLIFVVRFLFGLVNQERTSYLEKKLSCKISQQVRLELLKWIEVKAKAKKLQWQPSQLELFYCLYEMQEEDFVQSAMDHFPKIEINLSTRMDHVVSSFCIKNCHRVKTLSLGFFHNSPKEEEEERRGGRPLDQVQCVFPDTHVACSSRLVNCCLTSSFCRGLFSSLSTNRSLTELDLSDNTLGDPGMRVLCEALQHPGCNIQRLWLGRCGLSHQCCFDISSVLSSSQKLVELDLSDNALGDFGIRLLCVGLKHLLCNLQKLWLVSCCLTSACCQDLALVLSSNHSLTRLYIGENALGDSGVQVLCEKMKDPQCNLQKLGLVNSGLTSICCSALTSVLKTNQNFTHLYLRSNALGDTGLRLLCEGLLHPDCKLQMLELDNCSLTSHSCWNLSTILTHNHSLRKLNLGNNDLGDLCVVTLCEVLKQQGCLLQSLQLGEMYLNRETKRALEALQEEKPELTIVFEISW
UniProt P42768: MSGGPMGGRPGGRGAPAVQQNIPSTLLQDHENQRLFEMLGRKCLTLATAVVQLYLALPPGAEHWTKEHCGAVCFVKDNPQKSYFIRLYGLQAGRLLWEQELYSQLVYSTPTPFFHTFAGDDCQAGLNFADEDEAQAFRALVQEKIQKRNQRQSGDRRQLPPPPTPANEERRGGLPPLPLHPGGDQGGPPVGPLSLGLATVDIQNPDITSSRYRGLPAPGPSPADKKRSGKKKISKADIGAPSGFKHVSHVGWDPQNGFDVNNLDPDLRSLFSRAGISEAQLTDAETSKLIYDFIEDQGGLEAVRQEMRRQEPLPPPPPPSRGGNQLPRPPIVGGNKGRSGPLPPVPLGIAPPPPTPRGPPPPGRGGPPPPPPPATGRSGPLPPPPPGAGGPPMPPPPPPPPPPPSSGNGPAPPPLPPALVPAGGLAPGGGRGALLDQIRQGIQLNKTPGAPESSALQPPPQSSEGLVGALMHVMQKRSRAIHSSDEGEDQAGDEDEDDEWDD
UniProt P18760: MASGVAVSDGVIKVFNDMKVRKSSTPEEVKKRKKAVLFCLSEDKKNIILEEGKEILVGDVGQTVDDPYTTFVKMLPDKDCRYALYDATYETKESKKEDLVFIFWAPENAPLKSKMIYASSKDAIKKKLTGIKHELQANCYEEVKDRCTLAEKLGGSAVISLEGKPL
UniProt Q92747: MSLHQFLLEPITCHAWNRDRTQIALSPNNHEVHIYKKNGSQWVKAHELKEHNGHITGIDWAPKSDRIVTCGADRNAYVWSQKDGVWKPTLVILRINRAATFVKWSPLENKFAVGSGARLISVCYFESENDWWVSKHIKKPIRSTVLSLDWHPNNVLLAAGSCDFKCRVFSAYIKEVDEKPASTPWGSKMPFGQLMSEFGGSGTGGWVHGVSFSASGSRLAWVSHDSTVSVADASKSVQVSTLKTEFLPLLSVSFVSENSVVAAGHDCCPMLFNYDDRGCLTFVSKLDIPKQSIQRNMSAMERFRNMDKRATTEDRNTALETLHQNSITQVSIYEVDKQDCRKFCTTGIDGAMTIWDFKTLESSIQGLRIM

What was measured:
[1] = target: NLRP3 (mouse (endogenous in BMDM)) (UniProt Q8R4B8); assay: co-IP; mouse bone marrow-derived macrophages (BMDM)
[2] = target: NLRP3 (mouse (endogenous in BMDM)) (UniProt Q8R4B8); assay: condition: only cells stimulated with NLRP3 inflammasome activators (ATP or nigericin); co-IP; BMDM stimulated with known NLRP3 inflammasome activators, such as ATP or nigericin
full-length WASP = full-length WASP (UniProt P42768); assay: co-IP; immunoprecipitation of ARPC1B or ARPC1A with VCA and WASP; cells and constructs not stated
P2X7 = target: T1, P2X7 (UniProt Q9Z1M0); assay: co-IP; cells and constructs not stated
T1 sequence: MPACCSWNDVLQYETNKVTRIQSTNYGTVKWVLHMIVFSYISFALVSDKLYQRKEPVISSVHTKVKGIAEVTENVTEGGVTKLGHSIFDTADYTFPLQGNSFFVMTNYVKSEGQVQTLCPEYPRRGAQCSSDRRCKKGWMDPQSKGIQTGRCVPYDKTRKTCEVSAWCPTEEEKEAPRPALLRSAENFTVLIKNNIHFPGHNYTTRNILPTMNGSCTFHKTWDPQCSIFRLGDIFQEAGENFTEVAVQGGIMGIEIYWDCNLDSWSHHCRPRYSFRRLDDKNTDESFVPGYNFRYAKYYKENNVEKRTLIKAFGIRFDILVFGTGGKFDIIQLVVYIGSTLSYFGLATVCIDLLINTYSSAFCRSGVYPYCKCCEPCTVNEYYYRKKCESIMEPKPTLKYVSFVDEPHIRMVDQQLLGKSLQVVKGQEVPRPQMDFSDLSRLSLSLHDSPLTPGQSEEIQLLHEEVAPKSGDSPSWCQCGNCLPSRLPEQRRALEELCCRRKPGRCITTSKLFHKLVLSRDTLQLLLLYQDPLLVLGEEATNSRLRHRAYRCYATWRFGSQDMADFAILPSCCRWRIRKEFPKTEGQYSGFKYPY

- binding [1]: binds
- binding [2]: no binding
Molecule: Cofilin-1 (from UniProt P18760 1-166)

- binding (full-length WASP): binds
Molecule: ARPC1A (from UniProt Q92747 1-370)

- binding (P2X7): binds
B1: Eros (protein, UniProt Q3TYS2 1-187)
chain: MYMQVETRTSTRLHLKRAPGIRSWSLLVGILSTGLAAAYYSGDSLGWKLFYVTGCLFVAVQNLEDWEEAIFNKNTGKVILKTFSLYKKLLTLLRAGHDQVVVLLKDIQDVNVEEEKVRYFGKGYMVVLRFATGFSHPLTQSAVMGRRSDVEAIAKLITSFLELHRLESPSERSQSSDSEPDGPGGQS
